Most values lie at the floor of the assay. Slopes are relative: functional sequences can read slightly below zero.

This data set has as its system Saccharomyces cerevisiae PS128 hsf1 delta, HSF1(1-493) fusion. The data set can be described thus: growth estimate (transactivation domain function in HSF1 fusion, heat-shock survival) (a.u. (slope of normalised read count over time)); higher = stronger growth at 37°C, i.e. more transactivation activity. The following applies: library: random library. The procedure: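 Random 60-nt DNA library encoding peptides of up to 20 aa, fused to the C-terminus of yeast HSF1 residues 1-493 (C-terminal TAD deleted) and expressed from the native HSF1 promoter on a CEN plasmid in hsf1-deleted S. cerevisiae PS128. Cells were selected at 37°C on -trp 5-FOA plates for 0, 2, 4, 6 and 8 days and amplicons were sequenced. Growth estimate is the slope of a robust linear fit of total-sum-normalised read counts (normalised to the first time point) over time, using at least 2 replicates. Sequences are classed functional (TAD activity) above a threshold of -0.13, set from stop-codon control sequences.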
LVLCT: the growth estimate is -0.245. To ETFRGYVKGLTSIGARRDIC belongs under -0.25; to GWCINEISR, under -0.25. To VELGNAQALAISLIELRTMV belongs under -0.25; to SGFAVNTAARLHWGQGSYI, under -0.25. The figure for VVNFERPMEPTGYQFWQGSW is under -0.25; for NKPQAQGDVVSVLISRQLTP it is under -0.25. With SAADSGKQETALNAPRTRSF, the growth estimate was under -0.25. To TRRWVGVDNTASRK belongs under -0.25; to QTSQRLPWY, under -0.25.

Regarding LCGPYQDRGQSFYLQLTG, the growth estimate was under -0.25.

As for LTGFGRSTSGRRKWDI, the growth estimate was under -0.25. To LGPPKRPA belongs under -0.25.

For the substance LMNTGRSRAIQSRPGLHSMT, the growth estimate was under -0.25. With VQHVIFDML, the growth estimate is under -0.25. As to QSEL, the growth estimate is under -0.25. The figure for MTWCLSLCLGWRLTSAVPVV is under -0.25; for HLYRRLYDPPC it is under -0.25; for SILEEQLSGLSLLGVIEVAA it is under -0.25. To FDLRISRSLRGPSGLFAPTA belongs under -0.25; to LQWGELRSRKGLNRSGHHVR, under -0.25.

As to VRMRTGMGKKGGRSEDSCVT, the growth estimate is under -0.25.

With PCFHVSATGGAHRLRRYAAQ, the growth estimate is under -0.25.

As for DYCPP, the growth estimate is under -0.25. Regarding SNSRMPRYPIRF, the growth estimate was under -0.25. The figure for SLTGVCPEPPDFFS is under -0.25; for SSGLRLL it is under -0.25. The figure for PCYVDSNRLHPVFDNTSIKV is under -0.25; for SMSAGGS it is under -0.25; for KYRPTVRASRPL it is under -0.25. To HLDK belongs under -0.25; to RYARWRWRATPGSPDEPAP, under -0.25.

With HSIGHLTQTPVALDNILYKR, the growth estimate was under -0.25.

For RMGM, the growth estimate was under -0.25.

Regarding VSTHYVGSWALETPFSVIIA, the growth estimate was -0.183.

Consider EVARGRDKNW, for which the growth estimate was under -0.25. To ASPRTRQND belongs under -0.25. The figure for AQATWVPLTVSVQVGGSVLA is under -0.25; for SQLFGIRF it is under -0.25; for TRYWVPVKLKEKR it is under -0.25.

As for VVLCLLASNHISFECMLAVV, the growth estimate is under -0.25.

As for EKLAINGSSDPWLDSMVFTV, the growth estimate was under -0.25. The figure for GPGLGTRRSTSCPSSTILCS is under -0.25; for TLTQHPLFV it is under -0.25. To TSRRFENRLLPLRISKLGRP belongs under -0.25; to SLMVTDRRLLCMEITHRSAL, under -0.25. The figure for PDRSRIFWEDPFSVIPAGYY is -0.217; for HHKLHDVGHA it is under -0.25.

Turning to RSPEQVRRALVLQRFRSTTE, the growth estimate was under -0.25.

Regarding LRD, the growth estimate is under -0.25. The figure for RVHEALTYKLVREHSLSCLW is under -0.25; for LSVKLRSSTVTQLFVNSVRL it is under -0.25; for PKSPLL it is under -0.25.

For the substance ERQSRRLTLWDT, the growth estimate is under -0.25. The figure for RMQW is under -0.25; for TMSHGLIRCMDYFARVVLLR it is -0.246. ILCEFEGLPYGGNVLCVSIT: the growth estimate was -0.248.

With FNRPVLRSRTEG, the growth estimate is under -0.25. To LWQQFRSSGDDSLS belongs -0.229; to ALPIIKVSAIPHWEHAHE, under -0.25; to TSASR, -0.189. To STRS belongs under -0.25; to VESVRKRHYKR, under -0.25; to CGFAVDKVFDYLYY, under -0.25. Turning to PDWRIEKKCGHRAFPKCPYC, the growth estimate is under -0.25.

Take DCARW: the growth estimate was under -0.25. As to DMG, the growth estimate is under -0.25. For SGLLGPSVNDCHTC, the growth estimate is under -0.25. Consider HGVVTTNNMFSYTSG, for which the growth estimate is under -0.25. To SCGLYLG belongs under -0.25; to EILAKQYSGPG, under -0.25.

Turning to HVLGTMSGVEGCSSRLGYAS, the growth estimate was under -0.25. The figure for LGLRGATTRVPSVFVGAVSK is under -0.25; for EHGVDFGNMAGSS it is under -0.25. Regarding PWKPHFRSIIKWRNSTIYFN, the growth estimate is under -0.25. The figure for QGPTSGLG is under -0.25. As to DGLQSNWQRSFVFGFIS, the growth estimate was under -0.25. To SSIEDDLEWSAPGVGPSLAV belongs under -0.25; to VEEECVITTLERFSYLH, under -0.25; to SYETMAQTTIGFVTKAIRLC, under -0.25. To NSHYT belongs under -0.25; to CTHRGISNASAALLLKTSHV, under -0.25. The figure for TGTLGSQRLNADGLYFRSHL is under -0.25; for RSCANMIGGFRMLYLGWSVL it is under -0.25. In the case of SHPDPEIHRIVYT, the growth estimate was under -0.25. On to TREISGAGRGMELVIMQAHR, for which the growth estimate was under -0.25. To QGRACSDRR belongs under -0.25; to DKHSRLLDPANHYAPEMAIA, under -0.25. To ISF belongs under -0.25. The figure for FRVC is under -0.25; for CQRRVHAYPPVARIGPRVST it is under -0.25; for SHWHRISKLAWEWHSGS it is under -0.25. As for VMLRLSG, the growth estimate was under -0.25.

In the case of FQSRKIGGIQSRVNSQVSVK, the growth estimate was -0.246.

Consider CDSPATAGVSLAVLQIKTSK, for which the growth estimate was under -0.25. To MGY belongs under -0.25. The figure for RFTLVQAIATGWYEPRSDCV is -0.219. The figure for QPSRTKWSLGVSWLEMTECP is -0.231; for INPRLTYRIVASAAELVSIS it is under -0.25. On to TGVQRRQISQRGILGVWCG, for which the growth estimate is under -0.25. The figure for THDLTRKDSQEAF is under -0.25. The figure for GVSKVGNIPRIGARGFAAVS is under -0.25; for RTIKPKVVNQCWRLSTYVMG it is under -0.25; for TYGDCSSLASGYCSVYDVVP it is under -0.25. To RWVLEILTWVKRNAYYVPSC belongs under -0.25.

Turning to AIPMDSTTESLT, the growth estimate was under -0.25. To PRACE belongs under -0.25; to LQLK, under -0.25.

For the substance ALYWVPLAKVERSFVECLGL, the growth estimate is under -0.25. To FGVVSRQEGPTRIECIG belongs -0.241; to GAWNGSEELLSGITRFS, under -0.25; to TVRAAKGSEGLVGHLASPRG, under -0.25. The figure for TRDHRESRVLRYTKTLEARR is under -0.25; for LMVLLYDTRRYRVLQPVS it is under -0.25; for PNTLLPIRPLAPSTLSDGTT it is under -0.25. To NTPGSLTDYS belongs -0.243; to WPFFGFLIRLVIPTEVAKRG, under -0.25; to LSKGHEITFWLFSRWSHSCA, under -0.25. FWHRGAESYLLVDVSSQLRS: the growth estimate was under -0.25. To RDIASG belongs under -0.25; to PDDSALQRVVPKTMVQQRQR, under -0.25; to RDKVISFVVSAKTYAQ, under -0.25. To LNRGVKPRSLSNGVRTCDGR belongs under -0.25; to HYQRLANHAEGAA, under -0.25. To FGGL belongs under -0.25; to SISR, -0.245; to NDSGGKIMVEIIRYSARFEH, under -0.25. On to IRKYTRDRSRSGNAACRYVR, for which the growth estimate is under -0.25.

As for WLLVAWLSGGYTIMETTRHS, the growth estimate was under -0.25.

Regarding SAWIYCPVRSIDVTDCISHN, the growth estimate is under -0.25.

As to FFAIVSARWSLRRFPNPL, the growth estimate is under -0.25.

Turning to SYSLWAIMPDLRQANHHAHP, the growth estimate was under -0.25. The figure for ATIHRGEESLLATNPRRTKF is under -0.25; for SLVASRNCSCHNPQPNPCRD it is under -0.25.

With GGWLKILPLPET, the growth estimate is under -0.25. To ICPLWVCPRKLFEHPDPGVR belongs under -0.25; to RPRKCFTGWSGLHEKGNSRR, under -0.25; to GLHTSTHPDD, under -0.25. The figure for PGPRGVTSHDRLIGKYTPQL is under -0.25.

As to HTLANDLFGATLVCPKVPAS, the growth estimate is under -0.25. With CQGDWKLSQVRTLPGKRWNF, the growth estimate was under -0.25. NELYVGASPRKRNDKGGEPP: the growth estimate was under -0.25. As to IILPVLMFYSSFVMNVRGQR, the growth estimate is -0.248.

For YGLHGFVGL, the growth estimate was under -0.25. To QVASSP belongs under -0.25; to WKRVTQRHQARNSTIISPRT, under -0.25. To ECCERVCGVHIPDAKVSKSH belongs under -0.25; to MYCFFEICNLKAVRGDFRVR, under -0.25. The figure for WCSQSIMMSYSARETASPSL is under -0.25.

The values are drawn from the supplement of paper PMC5949888.
